Results reported in article PMC12312434.
No constants are given. Whether binding was seen depends on the method and setting. For some assays here: In cells and extracts the contact can be indirect. Some binding calls cover weakened binding; strength is not graded here. Where a sequence is shown, tags or fusion partners need not be part of it.

What was measured:
[1] = target: COR47 (COLD-REGULATED 47), yeast two-hybrid fusion (Arabidopsis thaliana) (UniProt P31168); test: two-hybrid; pairwise AD and BD co-transformed into yeast strain Y2H gold; growth on SD -Leu/-Trp/-His/-Ade at 30 °C for 48 h
[2] = target: COR47 (COLD-REGULATED 47), BiFC fusion (Arabidopsis thaliana) (UniProt P31168); test: split reporter; BiFC; transient expression in N. benthamiana leaves by agroinfiltration (A. tumefaciens GV3101)

| binding [1] | binding [2] | Binder |
| --- | --- | --- |
| binds | – | COR47 (COLD-REGULATED 47), yeast two-hybrid fusion (protein, UniProt P31168 1-265) MAEEYKNNVPEHETPTVATEESPATTTEVTDRGLFDFLGKKEEEVKPQETTTLESEFDHKAQISEPELAAEHEEVKENKITLLEELQEKTEEDEENKPSVIEKLHRSNSSSSSSSDEEGEEKKEKKKKIVEGEEDKKGLVEKIKEKLPGHHDKTAEDDVPVSTTIPVPVSESVVEHDHPEEEKKGLVEKIKEKLPGHHDEKAEDSPAVTSTPLVVTEHPVEPTTELPVEHPEEKKGILEKIKEKLPGYHAKTTEEEVKKEKESDD |
| – | binds | COR47 (COLD-REGULATED 47), BiFC fusion (protein, UniProt P31168 1-265) MAEEYKNNVPEHETPTVATEESPATTTEVTDRGLFDFLGKKEEEVKPQETTTLESEFDHKAQISEPELAAEHEEVKENKITLLEELQEKTEEDEENKPSVIEKLHRSNSSSSSSSDEEGEEKKEKKKKIVEGEEDKKGLVEKIKEKLPGHHDKTAEDDVPVSTTIPVPVSESVVEHDHPEEEKKGLVEKIKEKLPGHHDEKAEDSPAVTSTPLVVTEHPVEPTTELPVEHPEEKKGILEKIKEKLPGYHAKTTEEEVKKEKESDD |
